For 64 compounds, inhibition results are on record in PubChem BioAssay AID493027 (The Scripps Research Institute Molecular Screening Center, 2011).

Amino acid sequences for entries named in this document (tags omitted). A change or cut given only in a name is not applied to a line headed by its entry.
UniProt O60240: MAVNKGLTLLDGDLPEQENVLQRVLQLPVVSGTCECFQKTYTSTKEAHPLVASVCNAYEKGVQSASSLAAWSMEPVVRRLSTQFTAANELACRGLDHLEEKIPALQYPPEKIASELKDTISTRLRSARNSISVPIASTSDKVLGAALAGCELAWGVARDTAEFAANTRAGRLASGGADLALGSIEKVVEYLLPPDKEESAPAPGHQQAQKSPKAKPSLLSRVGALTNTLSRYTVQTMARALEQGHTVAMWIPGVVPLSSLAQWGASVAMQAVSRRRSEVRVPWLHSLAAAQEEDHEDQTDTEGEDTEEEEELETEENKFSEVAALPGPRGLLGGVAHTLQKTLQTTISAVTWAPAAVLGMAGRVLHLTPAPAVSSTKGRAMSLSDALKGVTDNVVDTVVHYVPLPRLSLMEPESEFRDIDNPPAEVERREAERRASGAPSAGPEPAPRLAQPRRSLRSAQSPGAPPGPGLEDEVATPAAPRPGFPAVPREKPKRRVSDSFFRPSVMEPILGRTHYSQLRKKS
UniProt Q8WTS1: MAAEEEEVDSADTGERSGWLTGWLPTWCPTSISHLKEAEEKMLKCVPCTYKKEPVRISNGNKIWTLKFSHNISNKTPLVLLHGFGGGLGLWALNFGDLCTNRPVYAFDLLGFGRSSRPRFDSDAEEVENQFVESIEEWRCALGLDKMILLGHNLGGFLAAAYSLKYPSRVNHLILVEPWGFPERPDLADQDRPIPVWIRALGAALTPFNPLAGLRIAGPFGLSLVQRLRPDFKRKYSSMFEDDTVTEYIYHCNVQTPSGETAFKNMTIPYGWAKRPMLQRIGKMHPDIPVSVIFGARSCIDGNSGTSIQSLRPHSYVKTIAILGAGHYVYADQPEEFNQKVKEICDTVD

About 45 (2%) of roughly 2,000 compounds were called active.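 The calls were made as follows: active = inhibition above the screen-wide mean inhibition plus 3 SD (cut at about 44% in these data); inactive = the rest.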 This is one part of the list.

This experiment deals with Perilipin-1 (Homo sapiens) + 1-acylglycerol-3-phosphate O-acyltransferase ABHD5 (Homo sapiens) (UniProt O60240+Q8WTS1). The experiment can be described thus: ABHD5-PLIN1 interaction inhibitors, pilot screen, cell lysate, split luciferase complementation, luminescence, NIH validation set (AID 493027).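 Also: 0% = DMSO wells with the 100% control not disclosed.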 The note with it: split G. princeps luciferase complementation, 4 h; at 7.9 µM, hits give high values.
Take `COc1ccc(CNC(=O)N[C@H](C(=O)O)C(C)C)cc1OC`: the inhibition (in general, the drop in the measured response relative to a control, in per cent) is inactive: -7.79%. In the case of `CS(=O)(=O)NCc1ccc(C(=O)NCc2ccccc2)cc1`, the inhibition was inactive: -12.2%. As for `C/C(=N/N1CCN(Cc2cccc3ccccc23)CC1)c1cccnc1`, the figure is inactive: -7.82%. As for `Cc1cccc(Nc2ncccc2C(=O)O)c1C`, the figure is inactive: -0.47%; as for `CC1(C)CC(=O)C(C2=NC(C)(C)Cc3ccccc32)=C(O)C1`, inactive: -6.62%.

`O=C1CCCCCN1Cc1ccccc1`: the inhibition was inactive: -0.49%. Consider `C#CCOc1ccc2c(C)cc(=O)oc2c1`, for which the inhibition is inactive: 1.91%.

In the case of `Cc1ccc2c(c1)OC(=O)CC2c1ccccc1` (centres undefined), the inhibition is inactive: -5.39%. As for `COCc1cc(=O)[nH]c(/N=C(\N)Nc2ccc(Oc3ccccc3)cc2)n1`, the figure is inactive: -1.38%; as for `N/C(=N\OC(=O)CCCOc1ccc(Cl)cc1Cl)c1ccncc1`, inactive: 6.23%; as for `CCOc1cc2c3c(c1)C(C)=CC(C)(C)N3C(=O)C2=O`, active: 43.5%. As for `CCn1c(N2CCN(CC(=O)c3c(C)n(C)c4ccc(OC)cc34)CC2)nc2c1c(=O)[nH]c(=O)n2C`, the figure is inactive: 5.86%; as for `COc1cc(C(=S)N(C)C)ccc1O`, inactive: -6.41%. Next, `COc1ccc(C(=O)OCc2cc3cccc(C)c3[nH]c2=O)cc1`: inactive: -1.47%; `COc1ccc(CCN(C)Cc2nc(Cc3ccc(OC)c(OC)c3)no2)cc1OC`: inactive: -1.79%. Regarding `Nc1nc2c(nc(SCc3ccccc3Br)n2C2OC(CO)C(O)C2O)c(=O)[nH]1` (centres undefined), the inhibition is inactive: 5.62%. In the case of `Cc1ccc(SCC(=O)Nc2nccs2)cc1`, the inhibition was inactive: 7.01%. In the case of `Cc1nc(N)nc2c1CCCC2`, the inhibition is inactive: -5.16%. In the case of `CC[n+]1c(C)sc2cc(C)ccc21`, the inhibition was inactive: 0.88%. Next, `CCc1cc(=O)oc2cc3occ(-c4ccc(OC)c(F)c4)c3cc12`: inactive: 11%. `CSc1ccc(CN2CCN(CCC(C)C)C(CCO)C2)cc1` (centres undefined): the inhibition was inactive: -2.37%. Next, `COc1ccc2cc(C(=O)Nc3ccc(S(N)(=O)=O)cc3)sc(=O)c2c1OC`: inactive: -9.77%; `Cc1ccc(NC(=O)CSc2nc(O)c(Cc3ccccc3)c(=O)n2-c2ccccc2)cc1`: inactive: 5.86%. For `COCCCN1C(=O)C(=O)/C(=C(/O)c2ccc3c(c2)CC(C)O3)C1c1cccnc1` (centres undefined), the inhibition was inactive: -10.4%. Take `COc1ccc(C(=O)c2oc3ccc(Br)cc3c2NC(C)=O)cc1`: the inhibition was inactive: 5.9%. With `O=C(CC1(O)C(=O)Nc2ccccc21)c1ccccc1O` (centres undefined), the inhibition was inactive: -0.86%. Turning to `COc1ccc(-c2coc3cc(O)cc(O)c3c2=O)cc1`, the inhibition was inactive: 7.76%. `COc1ccccc1C1C(C#N)=C(N)Oc2c1oc(CO)cc2=O` (centres undefined): the inhibition is inactive: -5.22%. Regarding `CC(C)C[C@H](NC(=O)NC(C)C)C(=O)O`, the inhibition was inactive: -4.72%. `CN(C)CCC(c1ccc(Cl)cc1)c1ccccn1` (centres undefined): the inhibition is inactive: 2.13%. Consider `OCC(O)CN1CCN(c2ccccc2)CC1` (centres undefined), for which the inhibition was inactive: -1.28%.

On to `CCOC(=O)c1ccccc1NC(=O)c1ccc(F)cc1`, for which the inhibition was inactive: -4.45%. Next, `O=C(Cc1cccc2ccccc12)N1CC[C@@]2(O)CCCC[C@H]2C1`: inactive: -2.39%. Next, `CC1(C)CC(=O)C(C(=O)CCCCC(=O)C2C(=O)CC(C)(C)CC2=O)C(=O)C1`: inactive: -7.35%; `CCOC(=O)C1C(=O)OC(C)(C)C1C(C)C(=O)c1ccc(C)cc1` (centres undefined): inactive: 2.95%; `Cc1ccc(S(=O)(=O)N[C@@H](C)C(=O)N2CCC(C(=O)N3CCC[C@H]3C(=O)O)CC2)cc1`: inactive: -8.3%.

Take `CC(C)(C)C(=O)NC(=S)Nc1sc2c(c1C(N)=O)CCC2`: the inhibition is inactive: 1.49%. For the compound `COC(=O)C1=C(C)N(Cc2ccco2)C(=O)/C1=C\c1ccc([N+](=O)[O-])cc1`, the inhibition is active: 86%. Next, `Cc1cccc2c(C(=O)O)cc(-c3cccnc3)nc12`: inactive: 3.44%; `O=C(O)CCCCCNC(=O)Nc1ccc2c(c1)OCCO2`: inactive: 1.82%. Regarding `O=C(CC(NC(=O)OCc1ccccc1)C(=O)O)OCc1ccccc1` (centres undefined), the inhibition is inactive: -0.68%. Turning to `COc1ccc(C2NC(=O)c3ccccc3O2)c(OC)c1OC` (centres undefined), the inhibition is inactive: 1.11%. Next, `O=C1CCCN1C(=O)CCC(=O)N1CCCC1=O`: inactive: 3.93%; `CCN(CC)C(=O)N1CCN(C)CC1`: inactive: 41.1%. Next, `CC(C)COc1ccc(Cc2cnc(N)nc2N)cc1`: inactive: -3.45%. As for `Nc1ccc(N=Nc2ccccc2)c(N)n1`, the figure is inactive: 3.21%. With `CC12CCC(C(=O)N(CCC#N)CCC#N)(CC1=O)C2(C)C` (centres undefined), the inhibition is inactive: -7.25%. Next, `CCN(CCCc1ccccc1)CCCc1ccccc1`: inactive: 33.9%; `COc1ccc(C2c3c(n[nH]c3C)CC(C)(O)C2C(C)=O)cc1OC` (centres undefined): inactive: -4.9%. In the case of `CC[C@]1(O)C[C@@H]2CN(CCc3c([nH]c4ccccc34)[C@@](C(=O)OC)(c3cc4c(cc3OC)N(C)[C@H]3[C@@](O)(C(=O)OC)[C@H](OC(C)=O)[C@]5(CC)C=CCN6CC[C@]43[C@@H]65)C2)C1`, the inhibition was inactive: -0.7%. Take `CN(C)CCOC(c1ccccc1)c1ccccc1` (tested in a mixture with another compound): the inhibition was inactive: -0.63%.

As to `O=C(O)CCCCCCNC(=O)c1cncc(O)c1`, the inhibition was inactive: -10.4%. Next, `CC1(C)C(=O)OC(C(=O)c2ccc(Cl)cc2)C(C)(C)C1=O` (centres undefined): inactive: -6.07%. As for `CN(C)CCC(c1ccccc1)c1ccccn1` (centres undefined), the figure is inactive: -3.32%; as for `Nc1ccc2nc(Cc3ccccc3)[nH]c2c1`, inactive: -5.86%; as for `N/C(=N\OC(=O)/C=C/c1ccccc1)c1ccc(Br)cc1`, inactive: -13%. Regarding `Cc1ccccc1OCC(O)CN1CCN(C)CC1` (centres undefined), the inhibition is inactive: -6.82%. As to `CC(=O)Nc1ccccc1C(=O)C(=O)Nc1ccccc1`, the inhibition was inactive: -1.79%. As to `C=CCc1ccccc1OCC(O)CNC(C)C` (centres undefined), the inhibition was inactive: 1.47%. Next, `O=C(Cc1ccccc1)NNC(=O)Cc1ccccc1`: inactive: -0.42%; `CCCCOc1ccc(CC(=O)NO)cc1`: inactive: 33.5%; `CC(=O)OC(C)C[N+](C)(C)C` (centres undefined): inactive: -14.2%. For the compound `CCOCCCNCc1cn(-c2ccc(F)cc2F)nc1-c1ccccc1C`, the inhibition is inactive: -4%. Next, `CCOC(=O)c1cccc(P(C)(C)=O)c1`: inactive: -5.57%.
